{
  "sequences": {"note": "Protein sequences, listed by entry. Tags and fused reporters are not part of them. Residues count along the entry.", "UniProt P10721, 26-976 L764I/P838H": "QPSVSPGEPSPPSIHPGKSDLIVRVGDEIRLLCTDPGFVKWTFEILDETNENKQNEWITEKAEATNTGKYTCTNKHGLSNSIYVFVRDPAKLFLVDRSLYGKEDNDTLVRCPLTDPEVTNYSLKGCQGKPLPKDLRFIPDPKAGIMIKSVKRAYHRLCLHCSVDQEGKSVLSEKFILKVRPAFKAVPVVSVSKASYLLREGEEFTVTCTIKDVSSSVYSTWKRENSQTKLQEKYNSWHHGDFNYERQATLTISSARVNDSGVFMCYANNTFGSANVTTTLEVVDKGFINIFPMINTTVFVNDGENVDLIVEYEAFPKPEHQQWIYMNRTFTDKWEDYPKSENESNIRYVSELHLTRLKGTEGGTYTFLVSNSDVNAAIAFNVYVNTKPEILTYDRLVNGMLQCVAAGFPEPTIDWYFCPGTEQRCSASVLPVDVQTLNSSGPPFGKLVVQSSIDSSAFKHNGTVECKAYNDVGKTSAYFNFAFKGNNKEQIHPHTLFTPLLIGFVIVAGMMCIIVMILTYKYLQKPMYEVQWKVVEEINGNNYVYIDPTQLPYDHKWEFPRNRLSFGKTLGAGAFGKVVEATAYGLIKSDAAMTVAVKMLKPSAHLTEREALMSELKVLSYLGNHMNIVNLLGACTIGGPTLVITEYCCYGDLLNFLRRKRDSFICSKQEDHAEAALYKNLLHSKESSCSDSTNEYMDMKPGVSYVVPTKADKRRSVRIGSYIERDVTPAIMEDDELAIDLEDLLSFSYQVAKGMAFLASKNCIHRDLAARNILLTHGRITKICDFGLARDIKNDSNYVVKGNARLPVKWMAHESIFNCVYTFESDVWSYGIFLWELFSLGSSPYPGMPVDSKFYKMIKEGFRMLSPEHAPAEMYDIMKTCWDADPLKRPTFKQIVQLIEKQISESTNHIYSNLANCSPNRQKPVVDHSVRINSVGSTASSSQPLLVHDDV", "UniProt P05532, 25-979": "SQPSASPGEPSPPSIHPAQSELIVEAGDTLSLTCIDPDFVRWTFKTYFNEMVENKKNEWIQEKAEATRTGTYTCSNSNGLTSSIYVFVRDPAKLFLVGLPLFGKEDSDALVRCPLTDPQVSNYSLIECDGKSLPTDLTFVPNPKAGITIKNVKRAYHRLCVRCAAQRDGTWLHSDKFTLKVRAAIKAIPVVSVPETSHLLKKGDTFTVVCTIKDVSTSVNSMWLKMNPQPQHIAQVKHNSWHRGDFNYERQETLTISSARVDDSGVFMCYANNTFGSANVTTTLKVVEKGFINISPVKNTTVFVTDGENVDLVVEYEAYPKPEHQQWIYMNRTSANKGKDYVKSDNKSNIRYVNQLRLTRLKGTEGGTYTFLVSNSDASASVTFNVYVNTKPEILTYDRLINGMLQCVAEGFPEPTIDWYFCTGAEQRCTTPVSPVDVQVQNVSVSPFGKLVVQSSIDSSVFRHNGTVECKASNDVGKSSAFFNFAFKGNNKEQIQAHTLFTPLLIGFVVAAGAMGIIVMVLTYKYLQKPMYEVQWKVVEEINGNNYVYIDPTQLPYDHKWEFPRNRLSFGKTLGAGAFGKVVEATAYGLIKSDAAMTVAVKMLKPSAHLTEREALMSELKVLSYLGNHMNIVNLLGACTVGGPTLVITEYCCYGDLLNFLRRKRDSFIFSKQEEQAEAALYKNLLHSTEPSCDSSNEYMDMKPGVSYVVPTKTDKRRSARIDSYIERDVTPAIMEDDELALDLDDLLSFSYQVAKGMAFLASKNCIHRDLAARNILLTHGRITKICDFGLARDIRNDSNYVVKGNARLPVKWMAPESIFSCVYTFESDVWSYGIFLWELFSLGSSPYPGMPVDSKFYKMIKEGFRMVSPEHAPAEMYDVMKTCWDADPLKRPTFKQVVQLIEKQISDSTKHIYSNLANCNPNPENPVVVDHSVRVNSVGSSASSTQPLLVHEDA"},
  "source": "patent US20200171068",
  "key": {"[1]": {"target": "KIT (CD117), on MDA-MB-231 cells (Homo sapiens) (UniProt P10721)", "experiment": "flow cytometry", "conditions": "MDA-MB-231 cells; distribution nearly identical to anti-KIT antibody; protein on the cell surface; label: 3' biotin; single-stranded DNA"}, "[2]": {"target": "KIT (CD117), on MDA-MB-231 cells (Homo sapiens) (UniProt P10721)", "experiment": "activity in cells", "conditions": "PS between last 3 nt at 5' end of DNA aptamer; C3 spacer between aptamer and RNA passenger; 2'-F-U in RNA; 3' TEG-cholesterol on second passenger; miR-26a delivered to MDA-MB-231 cells; in xenografts raised in KIT+ but not KIT- tumor cells; protein on the cell surface; dose not given here"}, "[3]": {"target": "c-Kit overexpressed on MEF cells (UniProt P05532)", "experiment": "activity in cells", "conditions": "C3 spacer between aptamer and linker in each strand; PS at first three and last three linkages; exosome delivery to c-Kit overexpressing MEF cells enhanced by targeting chimera; protein on the cell surface; dose not given here"}, "[4]": {"target": "c-Kit, on TUBO cells (Mus musculus) (UniProt P05532)", "experiment": "activity in cells", "conditions": "PS between last 3 nt at 5' end of DNA aptamer; C3 spacer between aptamer and RNA passenger; 2'-F-U in RNA; 3' TEG-cholesterol on second passenger; TUBO cell number reduction by chimera, not a binding constant; protein on the cell surface"}, "[5]": {"target": "c-Kit, on TUBO cells (Mus musculus) (UniProt P05532)", "experiment": "flow cytometry", "conditions": "PS between last 3 nt at 5' end of DNA aptamer; C3 spacer between aptamer and RNA passenger; 2'-F-U in RNA; 3' TEG-cholesterol on second passenger; biotinylated chimera on TUBO cells; level comparable to anti-c-Kit antibody; protein on the cell surface; label: biotin (binding assay)"}},
  "note": "For some assays here: Where cells or extracts were used, other partners may take part. For some assays here: Construct, isoform or probe ends are uncertain for at least one entry.",
  "data": [
    {"sequence": "GAGGCATACCAGCTTATTCAAGGGGCCGGGGCAAGGGGGGGGTACCGTGGTAGGACATAGTAAGTGCAATCTGCGAA [anti-human KIT DNA aptamer]", "values": [
      {"measurement": "binding result", "setting": "[1]", "result": "binds"}
    ]},
    {"sequence": "GAGGCATACCAGCTTATTCAAGGGGCCGGGGCAAGGGGGGGGTACCGTGGTAGGACATAGTAAGTGCAATCTGCGAACCUAUUCUGG / GUUACUUGCACG / UUCAAGUAAUCCAGGAUAGGCU [human KIT aptamer-miR-26a chimera]", "values": [
      {"measurement": "functional effect of the aptamer", "setting": "[2]", "result": "active"}
    ]},
    {"sequence": "GCTCAACGCGGGACGGCTCTCCCATTGACAAGTTCATTA / CACCCCACCTCGCTCCCGTGACACTAATGCTATAATGAACTT [mouse c-Kit aptamer-CD63 aptamer linker chimera]", "values": [
      {"measurement": "functional effect of the aptamer", "setting": "[3]", "result": "active"}
    ]},
    {"sequence": "GCTCAACGCGGGACGGCTCTCCCATTGACCCUAUUCUGG / GUUACUUGCACG / UUCAAGUAAUCCAGGAUAGGCU [mouse c-Kit aptamer-miR-26a chimera]", "values": [
      {"measurement": "IC50", "setting": "[4]", "result": 0.083, "unit": "µM"},
      {"measurement": "binding result", "setting": "[5]", "result": "binds"}
    ]}
  ]
}
